This test is described as follows: qHTS Assay for Lipid Storage Modulators in Drosophila S3 Cells.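 On cell number change: cells counted by Cell Tracker Red CMTPX staining in the red channel.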 The following applies: BODIPY lipid droplet fluorescence, 18-24 h; for cell number change: measured here: cell count max response, cells fed with added oleic acid. A digest of the protocol:
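Laser-scanning cytometry quantifies lipid droplet accumulation (500–530 nm total intensity; droplet/cell object ratio) in oleic acid-fed (400 uM added) Drosophila S3 cells treated with a concentration series. 20 uM Triacsin C defined 100% inhibition.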
On the technique in general: In qHTS, concentration-response curves come from the screen itself.

[1] abbreviates: measured here: lipid fluorescence (Fed channel) AC50, cells fed with added oleic acid.
Setting [2] is: measured here: cell number channel AC50, cells fed with added oleic acid.

From PubChem BioAssay AID2685 (National Center for Advancing Translational Sciences (NCATS), 2010) come the findings set out here.

This is one part of the list. Further columns of the screen follow, without active or inactive calls. Most of these compounds were active or inconclusive in the main read-out, so they are no random draw. Potencies come from curve fits of mixed quality, noted in brackets.

Take `Cc1cc(C)nc(Nc2cccc(C(F)(F)F)c2)n1`: the cell number change turned out to be 0.549%. For the same compound, the AC50 (commonly the midpoint of the concentration-response curve, whichever way the signal moves) under setting [1] was 5.8 µM [rising, full curve]. Consider `Cc1cc(C)cc(-n2c3nc4ccccc4nc3c3c(=O)n(Cc4ccco4)cnc32)c1`, for which the cell number change was -93.6%. For the same compound, under setting [2], the AC50 was 16.4 µM [falling, partial curve]. In the case of `CCOc1cc(/C=N/NC(=O)CSc2nncn2C)ccc1OC(=O)c1ccc(Cl)cc1`, the cell number change is -63%. In addition, under setting [2], the AC50 was 0.0092 µM [falling, full curve]. For the same compound, the AC50 under setting [1] was 14.6 µM [falling, partial curve]. Regarding `CCOC(=O)c1[nH]c2c(c1-c1ccccc1)C(=O)CC(c1ccc(Cl)cc1)C2` (centres undefined), the cell number change stood at 1.82%. The AC50 under setting [1] was 0.366 µM [rising, single point]. Consider `CC(CO)Nc1nc(SCc2ccccc2)nc2sc3c(c12)CCC3` (centres undefined), for which the AC50 runs as follows: under setting [2], 6.51 µM [rising, partial curve, poor fit]; under setting [1], 6.51 µM [rising, single point]. Regarding `O=C(COC(=O)c1c[nH]c2ccccc12)Nc1cccc(F)c1`, the cell number change is -4.02%. For the same compound, the AC50 under setting [1] is 29.1 µM [rising, single point]. `CC(=O)c1sc(-c2c(C)nc3sccn23)nc1C1CCCC1`: the cell number change came to 6.84%. As for `CC(=O)Nc1ccc(SCC(=O)NC(=O)c2ccccc2Br)cc1`, the cell number change stood at 2.71%. Also, the AC50 under setting [1] was 20.6 µM [rising, single point]. In the case of `O=C(COC(=O)c1ccc(Br)o1)NCC1CCCO1` (centres undefined), the cell number change was -15.3%. Also, the AC50 under setting [2] is 1.64 µM [falling, partial curve, poor fit]. Moreover, the AC50 under setting [1] was 6.51 µM [falling, single point]. Turning to `CC(O)CNC(=S)Nc1ccccc1` (centres undefined), the cell number change came out at 9.59%. The AC50 under setting [1] was 0.116 µM [falling, full curve, poor fit]. Regarding `CCOC(=O)CN(Cc1ccccc1)C(=O)OC(C)(C)C`, the cell number change is 9.88%.

Consider `COc1ccc(C(=O)NC2CCCCC2)cc1S(=O)(=O)N1CCOCC1`, for which the cell number change turned out to be 3.78%. Besides, the AC50 under setting [1] was 6.51 µM [falling, single point]. Turning to `CC(=NCCCn1ccnc1)c1c(O)n(Cc2ccccc2)c(=O)[nH]c1=O`, the AC50 was 6.51 µM [rising, single point] under setting [2] and 2.31 µM [rising, partial curve] under setting [1]. For the compound `CCOc1cc(/C=N/NC(=O)CN2CCCCC2)ccc1OCc1ccc(Cl)cc1`, the cell number change amounted to 20.5%. Under setting [1], the AC50 was 5.8 µM [rising, full curve]. In the case of `O=C(NCCN1CCOCC1)c1ccccc1N1C(=O)[C@@H]2Cc3c([nH]c4ccccc34)C(c3ccc(F)cc3)N2C1=O` (some centres undefined), the cell number change was -10.7%. For the same compound, the AC50 under setting [1] was 0.13 µM [rising, full curve, poor fit]. Turning to `COc1ccc(NC(=S)N(CCc2c(C)[nH]c3ccc(C)cc23)Cc2cccnc2)cc1`, the cell number change is 5.84%. Under setting [1], the AC50 is 0.13 µM [rising, full curve]. In the case of `CCc1nnc(NC(=O)C2CCCN(C(=O)c3ccc(Cl)cc3)C2)s1` (centres undefined), the cell number change is -0.417%. Also, the AC50 under setting [1] was 16.4 µM [falling, single point]. In the case of `Cc1onc(-c2ccccc2)c1C(=O)N/N=C/c1c(F)cccc1Cl`, the cell number change was -10.6%. On to `CC(C)N1CC(C(=O)Nc2ccc(F)c(Cl)c2)CC1=O` (centres undefined), for which the cell number change was 8.5%. Moreover, the AC50 under setting [1] was 3.26 µM [rising, single point]. Consider `Cc1ccc(NC(=O)CCn2cnc3ccccc3c2=O)c(C)c1`, for which the cell number change worked out at 27.1%. In addition, the AC50 under setting [1] was 0.00517 µM [rising, full curve, poor fit]. With `CC(C)OC(=O)C(C#N)c1nc2ccccc2nc1N1CCN(Cc2ccc3c(c2)OCO3)CC1` (centres undefined), the cell number change was -1.98%. On to `CCOC(=O)c1cccc(NC(=O)Cn2c(CC(=O)N3CCCC3)nc3ccccc32)c1`, for which the cell number change is 4.03%. In addition, the AC50 under setting [1] is 6.51 µM [rising, single point].

As to `CS(=O)(=O)N1CCC(C(=O)NCc2ccccc2)CC1`, the cell number change was -11.8%. Besides, the AC50 under setting [1] is 0.517 µM [rising, single point]. In the case of `COc1cc(C(=O)OCC(=O)N(C)c2ccccc2)cc(OC)c1OC`, the cell number change is -2.56%. For `O=C1NC2(CCCCC2)C(=O)N1CC(=O)N(Cc1ccccc1)c1ccccc1`, the cell number change worked out at 35.6%. For the compound `CCn1c2ccccc2c2nnc(SCc3ccccc3)nc21`, the cell number change came out at 5.52%. In addition, under setting [1], the AC50 was 1.64 µM [rising, full curve, poor fit]. As to `COCCCNC(=O)c1c(N)n(-c2cccc(S(N)(=O)=O)c2)c2nc3ccccc3nc12`, the cell number change worked out at 163%. In addition, the AC50 under setting [2] was 11.6 µM [rising, partial curve]. In the case of `O=C(CN1C(=O)C2C3CCC(C3)C2C1=O)NCc1ccco1` (centres undefined), the cell number change was -7.57%. In addition, under setting [1], the half-maximal activity concentration (AC50) was 6.51 µM [falling, single point]. For the compound `O=C1NN=COc2ccccc21`, the cell number change was -9.85%. Also, under setting [1], the AC50 was 0.517 µM [falling, full curve]. As to `COC(=O)c1ccccc1-c1ccc(C(c2c(C)[nH][nH]c2=O)c2c(C)[nH][nH]c2=O)o1`, the cell number change is -35.2%. Moreover, the AC50 under setting [2] is 18.4 µM [falling, single point]. Under setting [1], the AC50 was 23.1 µM [falling, single point]. Regarding `CCN(CC)S(=O)(=O)c1ccc(N2CCOCC2)c(NC(=O)c2ccc3ccccc3c2)c1`, the cell number change was 5.29%. Besides, the AC50 under setting [1] was 1.46 µM [rising, partial curve, poor fit]. On to `Cc1cc(S(=O)(=O)n2cnc3cc([N+](=O)[O-])ccc32)ccc1Cl`, for which the cell number change is -4.93%. Take `CCNC(=O)/C(=C\c1ccccc1)NC(=O)/C=C/c1ccccc1`: the cell number change was -33.3%. Further, under setting [2], the AC50 is 0.92 µM [falling, full curve, poor fit]. Also, under setting [1], the AC50 was 1.64 µM [falling, full curve].

For the compound `Cc1cc(C)c(C#N)c(SCc2cn3c(C)cccc3n2)n1`, the cell number change turned out to be 103%. Consider `Cc1sc(C(C2C(=O)CC(C)(C)CC2=O)C2C(=O)CC(C)(C)CC2=O)cc1[N+](=O)[O-]`, for which the cell number change is -49.2%. Also, the AC50 under setting [2] was 29.1 µM [falling, single point]. `NC(=O)C1CCN(C(=O)CCc2nc3sc4c(c3c(=O)[nH]2)CCCC4)CC1`: the cell number change is -100%. Moreover, under setting [2], the AC50 is 3.66 µM [falling, partial curve]. In the case of `CCOc1ccccc1C(=O)Nc1ccc2c(c1)C(=O)NC2=O`, the cell number change is -3.52%. In addition, the AC50 under setting [1] is 1.3 µM [falling, full curve]. Take `CCC(=O)N1C(=O)C2(Nc3ccccc3N2)c2ccccc21`: the cell number change was found to be 13.5%. For the same compound, the AC50 under setting [2] is 0.58 µM [falling, single point].

Consider `O=C(Nc1ccc(Nc2ccccc2)cc1)N1CCOCC1`, for which the AC50 under setting [1] was 0.651 µM [falling, single point].

`CC(=O)Oc1ccc(NC(=O)Cc2ccccc2)cc1`: the cell number change is -12.7%.

In the case of `Cc1cccc(CS(=O)(=O)c2cn(CC(=O)N3CCOCC3)c3ccccc23)c1`, the cell number change amounted to 14.2%. Moreover, the AC50 under setting [2] is 0.146 µM [rising, partial curve, poor fit].

On to `COc1ccc(/C=C2\Sc3ccc(C(=O)NCCCN4CCCC4)cc3N(C)C2=O)cc1OC`, for which the cell number change came out at 0.0824%.

As to `CCNc1nc2cccnc2s1`, the cell number change was found to be 7.87%. Moreover, the AC50 under setting [2] is 0.00461 µM [falling, full curve, poor fit]. The AC50 under setting [1] is 0.00461 µM [falling, full curve, poor fit]. Turning to `Cc1ccc(S(=O)(=O)N2[C@@H](c3cccc(Cl)c3)C(C(=O)O)=CC[C@H]2c2ccc(Cl)c(Cl)c2)cc1`, the cell number change was -0.858%. Under setting [2], the AC50 was 0.731 µM [rising, full curve, poor fit]. Under setting [1], the AC50 is 0.92 µM [rising, partial curve, poor fit]. Consider `CC(C)N(CCNC(=O)c1ccc(OCC2CCCO2)cc1)C(C)C` (centres undefined), for which the cell number change was -14.3%. In addition, the AC50 under setting [1] is 6.51 µM [falling, single point].

On to `O=C(CSc1nnc(-c2cccs2)n1Cc1ccco1)Nc1ccc2c(c1)OCO2`, for which the cell number change is -11.1%. Also, the AC50 under setting [1] is 0.517 µM [rising, partial curve]. For `COc1ccccc1-n1cnnc1SCC(=O)NCc1cccs1`, the cell number change stood at 53.8%. Also, the AC50 under setting [2] was 0.92 µM [rising, partial curve].

Take `O=C(Nc1nc2ccc(Cl)cc2s1)c1ccco1`: the cell number change came to 34.8%. Further, the AC50 under setting [2] was 29.1 µM [rising, single point]. The AC50 under setting [1] was 6.51 µM [falling, single point]. As for `OCC[C@@H]1C[C@H](O)[C@@H](O)[C@@]2(Cc3ccccc3CO2)O1`, the cell number change was found to be 14.4%. As to `COc1ccc(S(=O)(=O)NC2CCCCCC2)cc1C(N)=O`, the AC50 under setting [1] was 2.59 µM [rising, single point].

Consider `O=C(NNC(=O)c1ccc([N+](=O)[O-])cc1)c1ccncc1`, for which the cell number change is -27.5%. Moreover, the AC50 under setting [2] was 4.61 µM [falling, full curve, poor fit]. In addition, under setting [1], the AC50 is 29.1 µM [falling, single point]. In the case of `COc1ccc(C2CC(C(F)(F)F)n3nc(C(=O)O)c(Cl)c3N2)cc1OC` (centres undefined), the cell number change came out at 7.94%. Moreover, under setting [2], the AC50 was 0.731 µM [rising, partial curve, poor fit]. The AC50 under setting [1] is 0.651 µM [rising, partial curve, poor fit]. On to `Cc1ccc(C(=O)COC(=O)CNC(=O)c2cccs2)cc1`, for which the cell number change was -44.8%. Further, the AC50 under setting [2] was 0.0517 µM [falling, partial curve, poor fit]. Also, the AC50 under setting [1] was 0.058 µM [falling, full curve, poor fit]. Take `C[N+]1(C)CC[C@H](OC(=O)[C@@](O)(c2ccccc2)C2CCCC2)C1`: the cell number change was -31%. Besides, under setting [2], the AC50 is 0.164 µM [falling, full curve, poor fit]. For the same compound, under setting [1], the AC50 was 0.103 µM [falling, full curve, poor fit]. As for `COC(=O)c1[nH]c2ccc(C)cc2c1NC(=O)CN1CCN(c2ccccc2)CC1`, the cell number change is -45.9%. Moreover, the AC50 under setting [2] was 18.4 µM [falling, partial curve, poor fit]. For the compound `O=C(NCc1ccco1)c1ccc(CS(=O)Cc2ccc(Cl)cc2)o1` (centres undefined), under setting [1], the AC50 was 6.51 µM [falling, single point]. For `CC(C)N(Cc1ccccc1)CC(O)COc1ccc(S(=O)(=O)N2CCOCC2)cc1Cl` (centres undefined), the cell number change is -8.25%. Also, the AC50 under setting [1] was 0.00461 µM [rising, full curve, poor fit]. Consider `CN1C(=O)CSc2ccc(NC(=O)NCc3ccc(F)cc3)cc21`, for which the cell number change was -10%. Also, the AC50 under setting [1] is 0.00461 µM [falling, full curve, poor fit].

`CCCCN(C(=O)CC1CCCC1)c1c(N)n(CCC)c(=O)[nH]c1=O`: the cell number change is -19.8%.
